Experimental data from the supplement of paper PMC10849652.
This is one part of the list.

Amino acid sequences for entries named in this document (tags omitted). A change or cut given only in a name is not applied to a line headed by its entry.
UniProt Q96QG7: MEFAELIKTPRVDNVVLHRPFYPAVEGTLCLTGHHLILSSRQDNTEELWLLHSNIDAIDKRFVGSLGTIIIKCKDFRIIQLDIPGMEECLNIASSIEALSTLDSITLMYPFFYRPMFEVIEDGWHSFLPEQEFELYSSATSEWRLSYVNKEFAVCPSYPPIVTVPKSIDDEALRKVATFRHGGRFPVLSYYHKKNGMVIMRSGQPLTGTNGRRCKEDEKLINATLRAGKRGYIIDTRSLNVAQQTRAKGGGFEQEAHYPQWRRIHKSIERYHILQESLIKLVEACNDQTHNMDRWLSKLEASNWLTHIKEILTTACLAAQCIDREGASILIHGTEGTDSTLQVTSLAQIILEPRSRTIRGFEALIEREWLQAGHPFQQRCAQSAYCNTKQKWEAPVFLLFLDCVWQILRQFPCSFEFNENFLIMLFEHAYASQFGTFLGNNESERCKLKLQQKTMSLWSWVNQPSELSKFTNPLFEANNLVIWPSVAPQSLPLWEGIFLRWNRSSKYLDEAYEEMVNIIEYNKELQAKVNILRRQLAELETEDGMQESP
UniProt P52701: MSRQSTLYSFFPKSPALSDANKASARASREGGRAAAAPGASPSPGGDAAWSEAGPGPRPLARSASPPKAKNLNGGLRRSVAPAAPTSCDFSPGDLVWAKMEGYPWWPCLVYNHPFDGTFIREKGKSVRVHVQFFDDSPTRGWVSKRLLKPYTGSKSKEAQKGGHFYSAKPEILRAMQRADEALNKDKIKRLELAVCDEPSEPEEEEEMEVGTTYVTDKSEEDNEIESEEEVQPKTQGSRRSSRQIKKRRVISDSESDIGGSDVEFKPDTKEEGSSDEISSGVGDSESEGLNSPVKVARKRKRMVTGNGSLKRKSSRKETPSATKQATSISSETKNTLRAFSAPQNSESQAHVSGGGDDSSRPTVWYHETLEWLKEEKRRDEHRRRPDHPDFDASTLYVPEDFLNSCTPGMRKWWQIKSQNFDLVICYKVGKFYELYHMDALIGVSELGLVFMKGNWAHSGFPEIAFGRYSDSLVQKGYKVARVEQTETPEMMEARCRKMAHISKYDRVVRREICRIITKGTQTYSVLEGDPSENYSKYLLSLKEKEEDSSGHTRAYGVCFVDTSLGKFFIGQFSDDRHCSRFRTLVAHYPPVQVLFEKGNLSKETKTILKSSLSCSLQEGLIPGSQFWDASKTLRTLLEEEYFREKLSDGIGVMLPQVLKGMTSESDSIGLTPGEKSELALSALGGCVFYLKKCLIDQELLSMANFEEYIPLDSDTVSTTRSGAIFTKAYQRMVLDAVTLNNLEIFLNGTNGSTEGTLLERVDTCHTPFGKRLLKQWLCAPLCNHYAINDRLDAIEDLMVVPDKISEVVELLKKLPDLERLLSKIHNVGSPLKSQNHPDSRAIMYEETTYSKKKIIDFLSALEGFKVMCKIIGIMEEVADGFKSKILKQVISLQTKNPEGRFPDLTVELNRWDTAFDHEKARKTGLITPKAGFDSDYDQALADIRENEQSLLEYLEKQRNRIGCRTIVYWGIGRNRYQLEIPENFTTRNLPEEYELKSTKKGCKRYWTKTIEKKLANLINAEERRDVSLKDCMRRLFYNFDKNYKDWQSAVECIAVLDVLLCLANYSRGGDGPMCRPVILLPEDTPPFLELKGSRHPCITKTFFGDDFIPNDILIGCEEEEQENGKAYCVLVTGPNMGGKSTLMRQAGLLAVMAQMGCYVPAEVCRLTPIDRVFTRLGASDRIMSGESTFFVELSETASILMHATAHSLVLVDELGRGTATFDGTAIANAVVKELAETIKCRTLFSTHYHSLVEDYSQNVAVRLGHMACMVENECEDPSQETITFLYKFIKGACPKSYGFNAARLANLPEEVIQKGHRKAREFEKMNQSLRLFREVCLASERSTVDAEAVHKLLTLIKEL
UniProt Q9Y3D2: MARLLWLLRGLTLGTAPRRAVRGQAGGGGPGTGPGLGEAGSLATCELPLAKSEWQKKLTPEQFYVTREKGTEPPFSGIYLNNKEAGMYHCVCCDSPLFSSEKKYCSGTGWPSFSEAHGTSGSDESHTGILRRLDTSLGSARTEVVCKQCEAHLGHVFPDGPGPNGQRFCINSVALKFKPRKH
UniProt Q13330: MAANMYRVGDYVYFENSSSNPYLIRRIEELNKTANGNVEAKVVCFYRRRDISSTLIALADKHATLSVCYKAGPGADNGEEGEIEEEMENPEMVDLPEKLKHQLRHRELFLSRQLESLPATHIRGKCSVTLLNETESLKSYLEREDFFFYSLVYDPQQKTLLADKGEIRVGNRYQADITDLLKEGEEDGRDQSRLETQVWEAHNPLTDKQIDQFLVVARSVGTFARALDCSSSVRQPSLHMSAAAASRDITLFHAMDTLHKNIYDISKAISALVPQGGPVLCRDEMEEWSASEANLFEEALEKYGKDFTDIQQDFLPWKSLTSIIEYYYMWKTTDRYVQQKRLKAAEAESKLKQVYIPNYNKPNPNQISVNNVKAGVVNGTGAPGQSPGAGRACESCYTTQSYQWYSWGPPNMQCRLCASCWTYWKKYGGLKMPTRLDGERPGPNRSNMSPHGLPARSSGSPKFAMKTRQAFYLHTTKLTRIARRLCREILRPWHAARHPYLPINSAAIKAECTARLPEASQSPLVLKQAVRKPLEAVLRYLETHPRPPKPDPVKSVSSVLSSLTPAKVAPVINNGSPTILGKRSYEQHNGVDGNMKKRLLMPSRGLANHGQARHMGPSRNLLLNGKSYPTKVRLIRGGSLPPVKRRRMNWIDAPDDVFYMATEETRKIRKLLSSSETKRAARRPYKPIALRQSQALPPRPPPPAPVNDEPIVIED
UniProt P82909: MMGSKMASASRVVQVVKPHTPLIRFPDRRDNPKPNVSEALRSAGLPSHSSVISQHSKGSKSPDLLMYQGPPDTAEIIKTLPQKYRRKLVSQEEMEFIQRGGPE
UniProt P26038, whole entry, looked up: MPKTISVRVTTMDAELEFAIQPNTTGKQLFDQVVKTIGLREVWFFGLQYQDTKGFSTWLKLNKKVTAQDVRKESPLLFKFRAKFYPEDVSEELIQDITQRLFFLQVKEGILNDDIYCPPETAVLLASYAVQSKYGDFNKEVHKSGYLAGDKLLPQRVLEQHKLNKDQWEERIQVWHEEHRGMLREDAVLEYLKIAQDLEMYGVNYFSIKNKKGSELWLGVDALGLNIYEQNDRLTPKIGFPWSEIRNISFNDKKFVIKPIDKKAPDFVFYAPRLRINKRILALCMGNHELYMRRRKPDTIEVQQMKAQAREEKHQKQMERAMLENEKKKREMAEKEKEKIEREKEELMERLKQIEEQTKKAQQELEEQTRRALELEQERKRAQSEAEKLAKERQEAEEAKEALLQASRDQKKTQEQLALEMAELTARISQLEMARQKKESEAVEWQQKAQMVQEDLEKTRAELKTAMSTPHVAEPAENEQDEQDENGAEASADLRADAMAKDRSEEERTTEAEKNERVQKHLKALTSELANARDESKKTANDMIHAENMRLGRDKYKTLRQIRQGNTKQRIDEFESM
UniProt Q99707: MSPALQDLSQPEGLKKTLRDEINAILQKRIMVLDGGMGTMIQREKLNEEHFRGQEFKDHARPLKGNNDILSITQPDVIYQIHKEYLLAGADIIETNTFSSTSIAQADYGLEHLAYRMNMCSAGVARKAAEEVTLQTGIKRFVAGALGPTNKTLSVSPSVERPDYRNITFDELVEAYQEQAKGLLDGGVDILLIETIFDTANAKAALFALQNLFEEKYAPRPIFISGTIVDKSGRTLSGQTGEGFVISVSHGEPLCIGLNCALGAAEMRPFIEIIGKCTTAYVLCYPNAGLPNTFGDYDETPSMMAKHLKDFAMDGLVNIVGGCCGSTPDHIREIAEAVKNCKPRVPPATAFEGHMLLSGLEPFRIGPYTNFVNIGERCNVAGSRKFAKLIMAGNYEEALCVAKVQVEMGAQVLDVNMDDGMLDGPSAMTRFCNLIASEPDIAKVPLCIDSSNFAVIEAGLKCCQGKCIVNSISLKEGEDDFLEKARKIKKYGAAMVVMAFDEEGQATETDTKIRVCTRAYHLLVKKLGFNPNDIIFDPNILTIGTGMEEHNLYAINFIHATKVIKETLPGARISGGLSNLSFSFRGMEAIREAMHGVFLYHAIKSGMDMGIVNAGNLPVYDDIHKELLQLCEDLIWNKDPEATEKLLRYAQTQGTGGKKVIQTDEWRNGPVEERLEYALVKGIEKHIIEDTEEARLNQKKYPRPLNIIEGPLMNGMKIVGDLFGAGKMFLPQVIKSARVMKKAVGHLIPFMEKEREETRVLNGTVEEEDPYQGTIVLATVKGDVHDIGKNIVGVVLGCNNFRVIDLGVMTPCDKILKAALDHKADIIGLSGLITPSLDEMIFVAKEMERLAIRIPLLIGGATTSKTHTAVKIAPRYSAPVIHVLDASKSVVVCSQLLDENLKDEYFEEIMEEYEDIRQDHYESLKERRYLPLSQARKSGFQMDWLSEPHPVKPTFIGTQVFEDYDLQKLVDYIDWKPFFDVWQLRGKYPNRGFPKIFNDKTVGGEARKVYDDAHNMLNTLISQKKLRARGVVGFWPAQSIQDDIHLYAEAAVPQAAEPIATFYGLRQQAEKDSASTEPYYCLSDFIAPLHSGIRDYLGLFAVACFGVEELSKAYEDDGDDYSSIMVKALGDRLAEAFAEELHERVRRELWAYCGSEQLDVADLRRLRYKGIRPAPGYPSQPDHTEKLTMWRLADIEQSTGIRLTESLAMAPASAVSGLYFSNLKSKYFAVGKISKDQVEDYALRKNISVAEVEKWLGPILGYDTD
UniProt P00846: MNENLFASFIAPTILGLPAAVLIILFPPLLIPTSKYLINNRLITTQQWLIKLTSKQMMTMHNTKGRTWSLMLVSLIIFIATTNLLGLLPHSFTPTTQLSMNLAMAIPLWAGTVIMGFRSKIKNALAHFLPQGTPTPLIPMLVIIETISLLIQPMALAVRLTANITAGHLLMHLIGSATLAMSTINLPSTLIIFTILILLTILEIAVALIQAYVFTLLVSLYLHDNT
UniProt O94776: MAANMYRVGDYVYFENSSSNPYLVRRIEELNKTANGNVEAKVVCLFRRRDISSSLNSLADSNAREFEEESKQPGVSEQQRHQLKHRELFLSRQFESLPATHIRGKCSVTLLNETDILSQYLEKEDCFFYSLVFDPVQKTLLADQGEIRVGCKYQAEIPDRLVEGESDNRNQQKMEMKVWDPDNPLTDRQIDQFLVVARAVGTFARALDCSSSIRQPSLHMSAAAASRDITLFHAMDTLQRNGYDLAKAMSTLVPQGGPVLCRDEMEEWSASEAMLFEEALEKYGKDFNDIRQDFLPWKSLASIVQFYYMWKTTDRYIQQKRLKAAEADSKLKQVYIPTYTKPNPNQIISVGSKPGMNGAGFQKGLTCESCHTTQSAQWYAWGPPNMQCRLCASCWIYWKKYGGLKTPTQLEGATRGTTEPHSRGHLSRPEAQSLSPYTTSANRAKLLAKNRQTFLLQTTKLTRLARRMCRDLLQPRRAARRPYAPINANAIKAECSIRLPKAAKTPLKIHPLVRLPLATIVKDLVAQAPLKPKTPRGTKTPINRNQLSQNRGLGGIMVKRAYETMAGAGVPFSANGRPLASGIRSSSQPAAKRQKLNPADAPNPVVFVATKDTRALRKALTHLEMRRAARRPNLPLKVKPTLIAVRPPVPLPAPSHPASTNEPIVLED
UniProt Q9NZJ7, whole entry, looked up: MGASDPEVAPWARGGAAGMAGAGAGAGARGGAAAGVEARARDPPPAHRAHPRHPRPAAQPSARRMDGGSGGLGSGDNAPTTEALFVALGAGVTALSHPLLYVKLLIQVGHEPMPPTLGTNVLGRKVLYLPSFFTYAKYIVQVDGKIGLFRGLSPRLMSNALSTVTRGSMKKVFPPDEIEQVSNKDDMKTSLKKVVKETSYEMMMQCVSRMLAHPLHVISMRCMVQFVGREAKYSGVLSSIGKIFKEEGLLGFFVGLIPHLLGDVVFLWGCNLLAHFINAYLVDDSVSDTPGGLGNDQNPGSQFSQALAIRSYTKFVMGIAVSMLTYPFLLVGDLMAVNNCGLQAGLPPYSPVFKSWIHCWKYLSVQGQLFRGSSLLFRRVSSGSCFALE
UniProt Q13505: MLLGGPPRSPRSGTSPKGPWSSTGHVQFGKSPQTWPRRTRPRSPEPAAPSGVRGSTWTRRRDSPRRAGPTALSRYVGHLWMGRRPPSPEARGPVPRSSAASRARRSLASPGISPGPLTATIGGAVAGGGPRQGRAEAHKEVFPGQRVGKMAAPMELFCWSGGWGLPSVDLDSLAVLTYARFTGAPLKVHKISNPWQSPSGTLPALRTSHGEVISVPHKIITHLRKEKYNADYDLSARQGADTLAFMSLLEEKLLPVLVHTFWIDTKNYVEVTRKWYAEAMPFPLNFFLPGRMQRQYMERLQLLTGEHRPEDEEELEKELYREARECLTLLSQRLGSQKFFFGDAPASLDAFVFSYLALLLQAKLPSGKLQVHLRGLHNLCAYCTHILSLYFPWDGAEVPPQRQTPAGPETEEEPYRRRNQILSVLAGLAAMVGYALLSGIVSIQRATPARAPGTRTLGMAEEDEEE

compound: COc1cc2nc(-c3cc(F)ccc3O)nc(N[C@@H]3CNC[C@H]3C(C)(C)O)c2cc1OC; assay: log2 fold change, soluble protein after heating vs DMSO (PISA); higher = thermal stabilisation; K562 lysate, 10 uM; active = over 0.2 and 3.5 SD of the protein, either way, in both replicates (recomputed)
Method in brief: (§1)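 Pellets of K562 cells were dounce-homogenised in PBS pH 7.4 with 1 mM MgCl2, and the crude extract was held at 1 mg/mL protein for a 30 min treatment with 10 μM compound. Aliquots were heated for 3 min over 48°C-58°C and pooled before NP-40 was added to 0.5% at 4°C. The supernatant from 21,000xg for 90 min was quantified by TMTpro 16plex LC-MS/MS with channel sums equalised. Values are reported from duplicates as log-two fold change in thermal stability relative to solvent controls.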

log2 fold change, inactive:
MRPL4 (UniProt Q9BYD3) -0.055, MRPS9 (UniProt P82933) -0.008, MTMR9 (UniProt Q96QG7) 0.055, MRPL28 (UniProt Q13084) -0.02, MRPL41 (UniProt Q8IXM3) 0.028, MRPS22 (UniProt P82650) -0.017, MRPL45 (UniProt Q9BRJ2) 0.027, MRPS18A isoform 2 (UniProt Q9NVS2) -0.017, MRPL50 (UniProt Q8N5N7) 0.022, MTIF2 (UniProt P46199) -0.017, MRS2 (UniProt Q9HD23) -0.004, MT-ND1 (UniProt P03886) -0.073, MRPS30 (UniProt Q9NP92) -0.003, MTM1 (UniProt Q13496) 0.015, MRPS18B (UniProt Q9Y676) -0.01, MRPL32 (UniProt Q9BYC8) -0.017, MRPS5 (UniProt P82675) -0.014, MSH6 (UniProt P52701) -0.011, MSRB2 (UniProt Q9Y3D2) 0.136, MTA1 (UniProt Q13330) 0.023, MSI2 (UniProt Q96DH6) -0.012, MRPL9 (UniProt Q9BYD2) 0.014, MRPS10 (UniProt P82664) -0.061, MRPS36 (UniProt P82909) -0.018, MSN (UniProt P26038) -0.004, MRPS28 (UniProt Q9Y2Q9) -0.013, MTR (UniProt Q99707) -0.02, MTHFD2 (UniProt P13995) -0.007, MRPS31 (UniProt Q92665) -0.017, MTFR2 (UniProt Q6P444) 0.059, MRPL40 (UniProt Q9NQ50) -0.026, MRPL54 (UniProt Q6P161) 0.005, MRPL44 (UniProt Q9H9J2) -0.035, MT-ATP6 (UniProt P00846) 0.025, MT-CO1 (UniProt P00395) -0.016, MRPL58 (UniProt Q14197) -0.02, MTA2 (UniProt O94776) -0.005, MTCH1 (UniProt Q9NZJ7) -0.008, MTX1 (UniProt Q13505) 0.062

compound: COc1cc2ncnc(Nc3ccc(F)c(Cl)c3)c2cc1OCCCN1CCOCC1 [gefitinib]; assay: as above
Method in brief: as §1

log2 fold change, inactive:
MRPL4 (UniProt Q9BYD3) -0.053, MRPS9 (UniProt P82933) 0.026, MTMR9 (UniProt Q96QG7) 0.027, MRPL28 (UniProt Q13084) 0.072, MRPL41 (UniProt Q8IXM3) -0.021, MRPS22 (UniProt P82650) -0.12, MRPL45 (UniProt Q9BRJ2) -0.077, MRPS18A isoform 2 (UniProt Q9NVS2) 0.008, MRPL50 (UniProt Q8N5N7) -0.218, MTIF2 (UniProt P46199) -0.015, MRS2 (UniProt Q9HD23) 0.024, MT-ND1 (UniProt P03886) 0.087, MRPS30 (UniProt Q9NP92) -0.055, MTM1 (UniProt Q13496) -0.038, MRPS18B (UniProt Q9Y676) -0.076, MRPL32 (UniProt Q9BYC8) -0.068, MRPS5 (UniProt P82675) -0.005, MSH6 (UniProt P52701) -0.023, MSRB2 (UniProt Q9Y3D2) 0.021, MTA1 (UniProt Q13330) -0.023, MSI2 (UniProt Q96DH6) -0.031, MRPL9 (UniProt Q9BYD2) 0.008, MRPS10 (UniProt P82664) -0.02, MRPS36 (UniProt P82909) -0.023, MSN (UniProt P26038) -0.005, MRPS28 (UniProt Q9Y2Q9) -0.003, MTR (UniProt Q99707) 0.008, MTHFD2 (UniProt P13995) 0.012, MRPS31 (UniProt Q92665) -0.014, MTFR2 (UniProt Q6P444) 0.054, MRPL40 (UniProt Q9NQ50) -0.014, MRPL54 (UniProt Q6P161) -0.013, MRPL44 (UniProt Q9H9J2) 0.058, MT-ATP6 (UniProt P00846) 0, MT-CO1 (UniProt P00395) -0.097, MRPL58 (UniProt Q14197) -0.04, MTA2 (UniProt O94776) -0.02, MTCH1 (UniProt Q9NZJ7) -0.017, MTX1 (UniProt Q13505) -0.005
